Test results published in PubChem BioAssay AID2417 (National Center for Advancing Translational Sciences (NCATS), 2010).
Screen size: about 140,000 compounds; about 4,300 (3.1%) were called active. The shares of active, inactive and inconclusive entries below differ from those in the screen.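 The calls were made as follows: active = readout at or below -70, meaning at least 70% loss of cells showing the perinucleolar compartment, a nuclear body marking cancer cells; inconclusive = readout between -30 and a set limit; inactive = the rest.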

test: High Content Assay for Compounds that inhibit the Assembly of the Perinucleolar Compartment; settings: PC3M PTB-GFP, PNC prevalence imaging, 16 h; at 10 µM; stronger effect = lower value;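 also: plate controls were DMSO wells for no effect and camptothecin positive control wells for full effect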
Procedure, shortened: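 Compounds are pinned in duplicate onto adhered PC3M cells stably expressing GFP-tagged PTB and incubated 16 h at 37 C. Cells are then fixed, nuclei stained with Hoechst, and PNC-positive cells counted.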

Row | Compound | activity change (PNC), negative = inhibition
1 | CC(C)CCNC(=O)c1ccc2c(c1)N(Cc1ccccc1)C(=O)CS2=O (stereo not drawn) | inconclusive: -45.3%
2 | CS(=O)(=O)N(Cc1ccc(Cl)cc1)c1ccc(C(=O)Nc2cccnc2)cc1 | inconclusive: -35.6%
3 | Cc1ccc(N2C(=O)c3ccc(C(=O)N4CCOCC4)cc3C2=O)cc1C | inactive: -9.78%
4 | Cc1ccc(S(=O)(=O)NC2=NCN(CCOC(=O)c3ccccc3)CN2)cc1 | inconclusive: -32%
5 | Cc1cc(Cl)ccc1NC(=O)CSc1nnc(-c2ccncc2)n1Cc1ccco1 | inconclusive: -32.8%
6 | Nc1cc(=O)nc(SCC(=O)NCc2ccccc2)n1CCc1ccccc1 | inconclusive: -58.8%
7 | CCOc1cc(CNc2ccc(O)cc2)cc(Br)c1OCc1ccccc1F | inconclusive: -73.4%
8 | Cc1nc2cc(NC(=O)N3CCN(c4ccccn4)CC3)ccc2o1 | inconclusive: -50.7%
9 | N#Cc1ccccc1NC(=O)COc1c(Br)cc(Br)c2cccnc12 | inconclusive: -36.6%
10 | O=C(/C(=C/O)N=Nc1ccccc1)c1ccncc1 | inactive: 3.77%
11 | COc1ccc(OC)c(-c2cc(C(=O)N3CCc4ccccc4C3)no2)c1 | inconclusive: -31.9%
12 | Nc1nonc1/C(=N/O)N1CCN(CCO)CC1 | inconclusive: -60.8%
13 | Cc1ccc(S(=O)(=O)n2nc(-c3ccc(Cl)cc3)nc2NCc2ccco2)cc1 | inactive: -2.35%
14 | CCOc1cccc(C=Nc2cc(C)cc(C)c2O)c1O | inconclusive: -49.7%
15 | Cc1ccc(C)c(NC(=O)/C(C#N)=C/c2ccc(Sc3nncn3C)c([N+](=O)[O-])c2)c1 | inactive: -7.7%
16 | COc1cccc(CC(=O)n2nc(N)c3cc4ccc(OC)cc4nc32)c1 | inactive: -5.91%
17 | Cc1ccc(C2N(c3ccc(Cl)c(Cl)c3)C(=O)C3CCCN32)o1 (stereo not drawn) | inconclusive: -76.2%
18 | Cc1cc(C)n2[nH]c(=O)c(N=Nc3ccccc3)c2n1 | inactive: -4.29%
19 | CCCS(=O)(=O)N1CCCC(C(=O)NC2CCCC(C)C2C)C1 (stereo not drawn) | active: -82%
20 | Cc1nnc(NC(=O)CSc2nnnn2Cc2ccccc2)s1 | inconclusive: -68.4%

Fetched by compound from the list above, three records:
Row | Compound | activity change (PNC), negative = inhibition
20 | Cc1nnc(NC(=O)CSc2nnnn2Cc2ccccc2)s1 | inconclusive: -68.4%
19 | CCCS(=O)(=O)N1CCCC(C(=O)NC2CCCC(C)C2C)C1 (stereo not drawn) | active: -82%
16 | COc1cccc(CC(=O)n2nc(N)c3cc4ccc(OC)cc4nc32)c1 | inactive: -5.91%

(listing goes on)

Row | Compound | activity change (PNC), negative = inhibition
21 | O=C(c1cc(C2CC2)nc2ccccc12)N1N=C(C(F)F)CC1(O)C(F)F (stereo not drawn) | inconclusive: -74.5%
22 | COc1ccc2nc3oc(C(=O)N4CCN(c5cccc(Cl)c5)CC4)cc3cc2c1 | active: -87.4%
23 | O=C(Nc1ccc(Br)c2cccnc12)c1ccc(Cn2cc(Cl)cn2)o1 | inconclusive: -31.5%
24 | CCOc1c2ccc(C(=O)NCc3ccc(OC(F)(F)F)cc3)cc2nn1C | inconclusive: -48.9%
25 | COc1cc(N2CCCC2)c(OC)cc1/C=C(/C#N)c1cccc(F)c1 | active: -88.7%
26 | COc1ccc2c(c1)CCc1cc(C(=O)N3CCN(c4ccc(N5CCOCC5)nn4)CC3)sc1-2 | inactive: 9.39%
27 | O=C(NNc1c2ccccc2nc2ccccc12)c1ccc(O)cc1 | inconclusive: -36%
28 | O=C(Cc1ccccc1)Nc1ccccc1C(=O)O | inconclusive: -50.4%
29 | O=C(Nc1ccc2c(c1)C(=O)N(CC1CCCO1)C2=O)c1ccc(Cl)c(Cl)c1 (stereo not drawn) | inconclusive: -41.5%
30 | C=CCN1C(=O)CSc2ccc(C(=O)NCCC3=CCCCC3)cc21 | inactive: -6.75%
31 | Cc1ccc(N2C(=O)NC(NC(=O)C(C)(C)C)(C(F)(F)F)C2=O)cc1C (stereo not drawn) | inconclusive: -33.3%
32 | CCOC(=O)c1nnn(-c2nonc2OC)c1-c1ccccc1 | inconclusive: -56%
33 | CCCCCCCCCC(=O)N/N=C/c1ccc(C)s1 | inconclusive: -40%
34 | COc1ccc(S(=O)(=O)N(CC(=O)NCC2CCCO2)c2ccccc2)cc1OC (stereo not drawn) | inconclusive: -31.1%
35 | CN1CCN(c2cc(N3CCc4ccccc4C3)c(F)cc2[N+](=O)[O-])CC1 | inactive: 46.9%
36 | O=C(c1ccccc1)c1c[nH]c2cc3c(cc2c1=O)OCO3 | inconclusive: -37.9%
37 | O=C(O)c1cc2cc(F)ccc2[nH]1 | inconclusive: -59.9%
38 | CSCCC(NC(=O)c1c(C)oc2c1CCCC2)C(=O)O (stereo not drawn) | inactive: 32%
39 | CCOC(=O)C1C(=O)CC(C)(O)C(C(=O)OCC)C1c1ccc(OC)cc1 (stereo not drawn) | inconclusive: -36%
40 | O=C(COC(=O)CCCOc1ccc(Cl)cc1Cl)NCc1ccc(F)cc1 | inconclusive: -37.1%

Row | Compound | activity change (PNC), negative = inhibition
41 | COc1ccccc1NC(=O)CCC(=O)O | inconclusive: -77.6%
42 | CCOC(=O)C1=C(C)N=C2c3ccccc3C(=O)C2C1c1ccc(Cl)cc1 (stereo not drawn) | inactive: -29.7%
43 | COC(=O)C1C2C=CC3(CN(c4cccc(C)c4)C(=O)C13)O2 (stereo not drawn) | inconclusive: -56.9%
44 | O=c1cc(-c2ccc(O)c(O)c2)oc2c(C3O[C@H](CO)[C@@H](O)[C@H](O)[C@H]3O)c(O)cc(O)c12 (stereo partly drawn) | inactive: 5%
45 | Cc1[nH]c2ccccc2c1Cc1n[nH]c(=S)o1 | inconclusive: -58.9%
46 | Cc1cccc(OCC(=O)Nc2cccc3nsnc23)c1 | inconclusive: -37.3%
47 | Cc1ccc2c(c1)c1c(n2CC(O)CN2C(=O)CNC2=O)C(=O)CCC1 (stereo not drawn) | inactive: -8.02%
48 | CC1(C)CC(=O)C(/C=N/c2ccccn2)=C(O)C1 | inactive: -17%
49 | CC1CCCC(C)N1C(=O)c1cc(-c2ccc(Cl)c(Cl)c2)on1 (stereo not drawn) | inactive: 86.3%
50 | Cn1c(SCC(=O)N2CCN(c3ccccc3)CC2)nnc1-c1c[nH]c2ccccc12 | inactive: -14.5%
51 | CSc1ccc(S(=O)(=O)Nc2ccc3c4c(cccc24)CC3)cc1 | inactive: 31.9%
52 | Cc1csc(N(C(=O)Cc2ccccc2F)c2ccccc2)n1 | inconclusive: -71.9%
53 | COc1ccc(NC(=O)CSc2nnc(C3CC3)n2N)cc1 | inactive: 38%
54 | Cn1cc(CN2CCN(c3ccccc3)CC2)c2ccccc21 | inconclusive: -52.8%
55 | COc1ccc(/C=C/c2nc3cc(-c4ccccc4)ccc3o2)cc1O | inconclusive: -46.9%
56 | COc1cccc(OC)c1OCCN(C)C | inconclusive: -53.8%
57 | CCOC(=O)C1CCCN(C(=O)c2cn(CC(C)C)c(=O)c3cc(OC)c(OC)cc23)C1 (stereo not drawn) | active: -100%
58 | CC(C(=O)NCc1cccnc1)N1C(=O)c2ccccc2C1=O (stereo not drawn) | inconclusive: -31.3%
